# Data reported in PubChem BioAssay AID493014 (National Center for Advancing Translational Sciences (NCATS), 2011).
# In all, about 340,000 compounds went through this assay and about 170 (0.05%) were called active. This list was built around the results that the source calls inconclusive (neither active nor inactive); the mix of calls is not that of the screen. Calls come from the whole dose curve; as a rule, active = well fitted inhibition curve with a large enough effect in the signal ratio, with a control signal flat (not every such curve was filed as active); inconclusive = small, poorly fitted or top-dose-only effect, or effect the other way, or a change in a side signal; inactive = flat fitted curve, though single readings scatter; the % refers to the signal ratio. Where the call is inconclusive, the potency comes from a doubtful curve fit.
# Assay: qHTS Assay to Find Inhibitors of Chronic Active B-Cell Receptor Signaling;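 for activity change, negative = inhibition: plate controls were basal doxycycline-induced cells for no effect and cells given 10 µM MG132 for full effect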
# Conditions: ABC-DLBCL IkBa-CBG/CBR reporter, luminescence ratio (green luciferase fused to IkBa over red control in TMD8 lymphoma cells), 4 h; activity change, negative = inhibition: at 46.1 µM (top of the series) unless noted
# Procedure, shortened: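 Concentration-response series (up to 46 uM) were applied to TMD8 dual-reporter cells for 4 h at 37C with doxycycline. Green/red ratio, after filter-overlap correction, defined %Activity; red signal alone was normalised to basal cells and zero luminescence.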
# Potency is the fitted concentration of half-maximal effect.
SMILES,"activity change, negative = inhibition",Potency
Cc1nc2c(-c3ccccc3)c(C)nn2c(C)c1CCC(=O)NC(C)CCc1ccco1 (configuration not stated),inactive: 9.85%,
O=C1/C(=N\S(=O)(=O)c2cccs2)C([n+]2ccc(CCCc3ccccc3)cc2)=C([O-])c2ccccc21,inconclusive: 15.6%,
O=C(Cn1ncc(Cl)c(Cl)c1=O)N1CCc2ccccc21,inconclusive: 27.9%,
COc1ccc(NC(=O)CN(C)C(=O)C2CCCO2)cc1 (configuration not stated),inconclusive: 2.34%,
COc1ccccc1CNC(=O)c1ccc2[nH]c(C)c(C)c2c1,,"inconclusive: 4.47 µM [falling, full curve]"
Clc1nccnc1-c1ccccc1,inconclusive: 8.66%,
Cc1c(NC(=O)c2cccc(NC(=O)Cc3c(F)cccc3Cl)c2)c(=O)n(-c2ccccc2)n1C,inconclusive: -5.89%,
COc1ccc(-c2cc(CCCC(=O)NCCc3ccc(OC)cc3OC)no2)cc1,inactive: 11.6%,
Cc1nc(C(F)(F)F)c(C(=O)N/N=C(\N)c2ccccn2)s1,inconclusive: -11.7%,
CSc1ncc(Cl)c(C(=O)Nc2cccc(Cl)c2)n1,inconclusive: 0.433%,
C/C(=N\NC(=S)NC(C)C)c1cccc([N+](=O)[O-])c1,,"inconclusive: 29.1 µM [falling, single point]"
C=C1C(=O)O[C@@H]2[C@H]1[C@@H](OC(=O)/C(C)=C/C)C/C(C)=C\C(=O)/C=C(\C)[C@@H]2O,,"inconclusive: 0.708 µM [falling, partial curve, poor fit]"
Cc1nn(-c2cccc(C(F)(F)F)c2)c(Cl)c1/C=N/n1cnnc1,inconclusive: 11.6%,
Cc1ccc(Nc2cc(C)nc3ncnn23)cc1,,"inconclusive: 35.5 µM [falling, single point]"
CCOC(=O)c1c(C)[nH]c(C)c1C(=O)COC(=O)CCc1ccccc1,inactive: 0.599%,
CC(=O)c1c(C)n(CCc2ccc(Cl)cc2)c2ccc(O)cc12,inconclusive: -0.585%,
CCOc1ccc(/C=N/n2nnnc2N)cc1O,inconclusive: -14.3%,
Cc1ccc(-n2c(C)cc(C(=O)OCC(=O)N(CC(C)C)C3CCS(=O)(=O)C3)c2C)cc1 (configuration not stated),,"inconclusive: 6.31 µM [falling, partial curve]"
CCOc1ccccc1NC(=S)N1CCN(c2cccc(OC)c2)CC1,inactive: -3.84%,
COc1ccccc1C(=O)Oc1cc(N)n(S(=O)(=O)c2ccc(C)cc2)n1,,"inconclusive: 11.2 µM [falling, partial curve]"
COc1ccccc1S(=O)(=O)NCc1ccc(C(=O)NC2CCC(O)CC2)cc1 (configuration not stated),inactive: -0.366%,
CN(c1ccccc1)S(=O)(=O)c1ccc(Cl)c(C(=O)Nc2ccncc2)c1,inactive: -0.71%,
O=C(Nc1ccc2ncccc2c1)c1cc(Cl)ccc1Cl,,"inconclusive: 2.51 µM [falling, partial curve, poor fit]"
COc1cc(C(C)=O)ccc1OCC(=O)Nc1ccc(Cl)c(S(=O)(=O)N2CCOCC2)c1,,"inconclusive: 20.6 µM [falling, partial curve, poor fit]"

SMILES,"activity change, negative = inhibition",Potency
CCOC(=O)c1[nH]cnc1C(=O)N1CCN(C(=O)OC(C)(C)C)CC1,inconclusive: 0.141%,
Cc1ccccc1C(=O)N1CCN(c2ccc(NC(=O)c3ccco3)cc2Cl)CC1,,"inconclusive: 2.59 µM [falling, full curve]"
CC(=O)N1CC(=O)N(c2ccccc2)C1=O,inconclusive: 7.28%,
CC(=O)N/N=C/c1cc(C(C)(C)C)cc(/C=N/NC(C)=O)c1O,inactive: -0.854%,
CCOC(=O)C1=NNC2(CC(=O)N(c3cccc(C)c3)C2=O)C1 (configuration not stated),inconclusive: 12.4%,
Cn1c(=O)c2c(nc(Br)n2C/C=N/NC(N)=S)n(C)c1=O,,"inconclusive: 35.5 µM [cytotoxic, single point]"
N#Cc1ccc(C(=O)Nc2nc3ccccc3[nH]2)cc1,,"inconclusive: 3.98 µM [falling, partial curve]"
CC(C)N(Cc1nccn1C)C(=O)CCc1nnc(CCCc2ccccc2)o1,inconclusive: -82.7%,
CC(C)N(C(=O)[C@H]1C[C@H](CC(=O)NCCc2ccccn2)C(=O)N2CCc3c([nH]c4cc(-c5ccco5)ccc34)[C@]12C)C(C)C,inconclusive: -17%,
COc1cc(/C=C2\SC(=S)N(CCC(=O)Nc3ccccn3)C2=O)cc(OC)c1OC,,"inconclusive: 22.4 µM [falling, partial curve]"
Cc1ccc(CC(=O)Nc2cccc(C)n2)cc1,,"inconclusive: 0.259 µM [rising, full curve, poor fit]"
CCOC(=O)C1=C(N)Oc2c(oc(CO)cc2=O)C1c1c(F)cccc1Cl (configuration not stated),inconclusive: -19.4%,
Cc1cccc(N2CCN(C(=O)CSc3ccsc3[N+](=O)[O-])CC2C)c1 (configuration not stated),inconclusive: 0.134%,
Cc1onc(-c2ccccc2)c1C(=O)NNC(=S)NC(=O)/C=C/c1cccs1,inactive: -7.25%,
Cc1ccc(S(=O)(=O)N(C)CC(=O)NNC(=O)CCC(=O)c2ccc(F)cc2)cc1,inconclusive: 5.68%,
c1ccc(CN2CN=C(Nc3nc4ccccc4s3)NC2)cc1,inconclusive: 2.39%,
Cc1ccc(S(=O)(=O)n2cc(C=O)c3ccccc32)cc1,,"inconclusive: 35.5 µM [falling, single point]"
CN(C(=O)c1ccc(NC(=O)Cc2cccc(NC(=O)C3CCN(C(=O)C4CC4)CC3)c2)cc1)C1CCCC1,inconclusive: 0.739%,
C=CCc1cccc2cc(-c3nc4ccc(C)cc4[nH]3)c(=O)oc12,,"inconclusive: 0.251 µM [falling, full curve, poor fit]"
CCOc1ccc(N2C(=O)CNC2=S)cc1,inactive: -12.6%,
Cc1cc(NC(=O)CSc2nnc(-c3ccccc3)c(-c3ccccc3)n2)no1,inactive: -6.24%,
C#CCOCCOCCOCCNc1nc(N2CCN(C(=O)CCCCCCCCCCNC(=O)[C@@H](CCSC)n3cc(CCO)nn3)CC2)nc(N2CCN(C(=O)CCCCCCCCCCNC(=O)[C@H](CCCN=C(N)N)n3cc(C[C@@H](C)CC)nn3)CC2)n1,inconclusive: 2.7%,
COc1cc(C(=O)Nc2nc3ccccc3[nH]2)ccc1OC(F)F,inconclusive: 250%,

# Some values from the results shown:
# Cc1ccc(S(=O)(=O)N(C)CC(=O)NNC(=O)CCC(=O)c2ccc(F)cc2)cc1 | activity change, negative = inhibition: inconclusive: 5.68%
# CCOC(=O)C1=C(N)Oc2c(oc(CO)cc2=O)C1c1c(F)cccc1Cl (configuration not stated) | activity change, negative = inhibition: inconclusive: -19.4%
